Patent US20190225662A1
No constants are given. Whether binding was seen depends on the method and setting. Some entries that bind do so weakly or less than the wild type.

Chains of the proteins cited; added tags and fusions are not shown. Lines headed by an entry give the natural chain unless they say otherwise; changes in a name come on top. Residues count along the entry.
UniProt Q9UBS5, residues 26-160: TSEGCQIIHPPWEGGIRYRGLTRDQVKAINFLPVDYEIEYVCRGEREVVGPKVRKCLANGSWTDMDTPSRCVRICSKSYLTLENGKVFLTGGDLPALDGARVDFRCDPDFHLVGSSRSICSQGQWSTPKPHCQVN
UniProt P12023: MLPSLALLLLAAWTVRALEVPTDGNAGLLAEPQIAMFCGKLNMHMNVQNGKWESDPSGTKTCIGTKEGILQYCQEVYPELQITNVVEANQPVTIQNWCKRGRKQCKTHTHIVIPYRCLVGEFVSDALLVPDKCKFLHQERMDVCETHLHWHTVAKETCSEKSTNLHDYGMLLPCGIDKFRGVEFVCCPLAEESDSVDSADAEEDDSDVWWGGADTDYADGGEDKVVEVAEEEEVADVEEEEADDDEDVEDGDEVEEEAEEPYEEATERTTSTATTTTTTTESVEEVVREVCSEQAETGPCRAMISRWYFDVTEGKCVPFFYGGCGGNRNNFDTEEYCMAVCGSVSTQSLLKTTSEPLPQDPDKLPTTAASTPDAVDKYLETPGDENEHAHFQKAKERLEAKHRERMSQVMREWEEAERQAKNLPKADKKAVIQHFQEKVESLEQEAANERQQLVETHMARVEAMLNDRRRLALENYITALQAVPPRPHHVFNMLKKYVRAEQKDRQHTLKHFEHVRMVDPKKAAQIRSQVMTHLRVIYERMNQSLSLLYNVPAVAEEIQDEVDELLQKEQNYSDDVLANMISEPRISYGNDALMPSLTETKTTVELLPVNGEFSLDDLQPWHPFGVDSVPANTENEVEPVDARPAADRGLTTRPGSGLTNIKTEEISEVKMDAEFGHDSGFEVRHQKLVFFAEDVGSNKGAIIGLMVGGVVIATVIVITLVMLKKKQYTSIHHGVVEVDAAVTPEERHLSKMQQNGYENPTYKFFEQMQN

What was measured:
[1] = target: sushi domains of GABABR1a (protein used in BioLayer Interferometry) (UniProt Q9UBS5); test: BioLayer Interferometry
[2] = target: sushi domains of GABABR1a (protein used in BioLayer Interferometry) (UniProt Q9UBS5); test: BioLayer Interferometry; which partner is on the sensor and the concentrations are not given

binding [1]: binds
binding [2]: binds
Substance: sAPPα (Fc cleaved) (from UniProt P12023 18-687) (ligand)
